In all, about 350,000 compounds went through this assay and about 6,000 (1.7%) were called active. The inconclusive results got no clear call from the source; some entries with a clear call stand among them for comparison. Cut-off read from the data, not from the text of the source: active = CPE inhibition above about 20% (passing the limit was not always enough); inconclusive = no clear call, values can overlap the other calls; tested in BHK-21 cells.
Experiment: protection of cells from dengue 2 killing – plate reader, single concentration, primary screen (AID 651640);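 note: 0% = median of neutral control wells and 100% = median of positive control wells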
Settings: DENV2-infected cells, cytopathic effect rescue, at 9.99 µM, hits give high values
For `COc1ccc(NC(=O)N(C)C[C@H]2Oc3c(NC(=O)Nc4ccccc4)cccc3C(=O)N([C@@H](C)CO)C[C@@H]2C)cc1`, the CPE inhibition was inconclusive: 30.2%. With `NC(=O)CC(NC(=O)Cc1cccc2ccccc12)c1ccc(NCc2ccccn2)c([N+](=O)[O-])c1` (configuration not stated) the CPE inhibition was inconclusive: 61.8%. With `CC(=O)c1c(C)nc2ccc(Br)cc2c1C(=O)O` the CPE inhibition was inconclusive: 26%. For `O=C(C[C@@H]1C[C@@H]2c3cc(NC(=O)c4cccnc4)ccc3O[C@@H]2[C@@H](CO)O1)NCc1ccccn1`, the CPE inhibition was inconclusive: 24.9%. For `CCC(=O)c1ccc(OCC(=O)OCC(=O)NCC2CCCCC2)cc1`, the CPE inhibition was inconclusive: 21%. In the case of `COCC#Cc1ccc([C@H]2[C@H]3CN(S(=O)(=O)c4cccc(OC)c4)CCCCN3[C@H]2CO)cc1`, the CPE inhibition is reported as active: 22.5%. For `Cc1ccc(Nc2ccc(C(F)(F)F)cc2[N+](=O)[O-])cc1`, the CPE inhibition was inconclusive: 20.7%. In the case of `C=CCNc1ncnc2c1ncn2[C@H]1CN(Cc2ccccc2)C[C@@H](CO)O1`, the CPE inhibition is reported as inconclusive: 55.5%. For `CC1C(=O)N2CCCc3cc(NS(=O)(=O)c4ccc([N+](=O)[O-])cc4)cc1c32` (configuration not stated), the CPE inhibition was inconclusive: 41.5%. For `CCCC#Cc1cnc2c(c1)C(=O)N([C@H](C)CO)C[C@H](C)[C@H](CN(C)C(=O)c1ccc3c(c1)OCO3)O2`, the CPE inhibition was inactive: -2.99%. In the case of `CCc1ccccc1N(C(=O)c1snc(C(N)=O)c1N)C(C(=O)NCC1CCCO1)c1ccc(OC)c(OC)c1` (configuration not stated), the CPE inhibition is reported as inconclusive: 22.8%. With `c1cc(-c2n[nH]c(-c3ccncc3)n2)ccn1` the CPE inhibition was inconclusive: 32%. In the case of `O=C(CN1C(=O)NC2(CCCC2)C1=O)N1CCN(S(=O)(=O)c2cccc(F)c2)CC1`, the CPE inhibition is reported as inactive: -2.2%. In the case of `Cc1ncccc1C(=O)N1CCCC(C(=O)c2ccc3c4c(cccc24)CC3)C1` (configuration not stated), the CPE inhibition is reported as inactive: -4.86%. With `CCC(CO)Oc1cc(NCc2ccc(C)c(C)c2)c2ncn(C(C)C)c2c1` (configuration not stated) the CPE inhibition was inconclusive: 21.4%. For `CN1C(=O)c2cc(NC(=O)Cc3cccs3)ccc2OC[C@H]2O[C@H](CC(=O)NCCc3ccncc3)CC[C@@H]21`, the CPE inhibition was inconclusive: 25.2%. In the case of `COCC(=O)N1CC(=O)N2[C@H](CO)[C@@H](c3ccc(C#CC4CCCC4)cc3)[C@H]2C1`, the CPE inhibition is reported as inconclusive: 35.9%. For `COC(=O)c1ccc(NC(=O)COC(=O)CCC2CCCC2)cc1`, the CPE inhibition was inconclusive: 38.8%. For `COc1ccc(CN(C)C[C@H]2OCCCC[C@H](C)Oc3ccc(NC(=O)Cc4ccccc4)cc3C(=O)N([C@@H](C)CO)C[C@@H]2C)cc1`, the CPE inhibition was inconclusive: 22.4%. In the case of `C[C@@H]1CCCCO[C@@H](CN(C)Cc2ccc(Cl)c(Cl)c2)[C@H](C)CN([C@@H](C)CO)C(=O)c2cc(NS(=O)(=O)c3ccc(Cl)cc3)ccc2O1`, the CPE inhibition is reported as inactive: -26.4%. For `O=C(COC(=O)Cc1ccc(-c2ccccc2)cc1)NCc1ccccc1`, the CPE inhibition was inconclusive: 28.6%. With `COc1ccc2c3c([nH]c2c1)[C@H](CO)N(C(=O)c1ccccn1)CC31CCN(C(=O)C2CC2)CC1` the CPE inhibition was inconclusive: 37.1%. With `C[C@H]1CN([C@@H](C)CO)C(=O)c2cc(C#CC(C)(C)O)cnc2O[C@@H]1CN(C)C(=O)C1CC1` the CPE inhibition was inconclusive: 17.3%. In the case of `N#C[C@@H]1[C@H](c2ccc(C#CC3CCCC3)cc2)[C@H](CO)N1C(=O)c1cccc(F)c1`, the CPE inhibition is reported as inconclusive: 60.8%. For `COc1cc(NC(=O)c2cc(S(=O)(=O)N3CCCCC3)c[nH]2)cc(OC)c1`, the CPE inhibition was inconclusive: 53.6%. In the case of `CCC(=O)N1CC2(C1)[C@@H](c1ccc(-c3ccc(F)cc3)cc1)[C@H](CO)N2C(=O)CC`, the CPE inhibition is reported as active: 26.7%. In the case of `Cc1ccc(S(=O)(=O)N(C)C[C@@H]2Oc3ncc(-c4ccncc4)cc3C(=O)N([C@@H](C)CO)C[C@H]2C)cc1`, the CPE inhibition is reported as inactive: -8.84%. With `CN(Cc1ccccc1)C1CCN(Cc2ccccc2[N+](=O)[O-])CC1` the CPE inhibition was inconclusive: 27.6%. For `COCCN1CCN(Cc2nc(Cc3ccc(OC)c(OC)c3)no2)CC1`, the CPE inhibition was inactive: 1.25%. In the case of `CN1CCN(S(=O)(=O)c2cccs2)CC1`, the CPE inhibition is reported as active: 33.9%. With `C[C@H](CO)N1C[C@H](C)[C@@H](CN(C)Cc2ccncc2)Oc2ccc(N(C)C)cc2C1=O` the CPE inhibition was active: 47.3%. In the case of `CCn1c(C)nc2cc(C(=O)NNS(=O)(=O)c3cc(Br)ccc3Br)ccc21`, the CPE inhibition is reported as inactive: 0.584%. For `Cn1cc(C=O)c2cc(S(=O)(=O)N3CCOCC3)ccc21`, the CPE inhibition was inconclusive: 21.8%. For `Cc1c(C(=O)Nc2ccc3nc(N4CCOCC4)sc3c2)oc2ccccc12`, the CPE inhibition was inconclusive: 34.2%. In the case of `CCCC#Cc1cnc2c(c1)C(=O)N([C@H](C)CO)C[C@@H](C)[C@@H](CN(C)C(=O)c1ccccc1)O2`, the CPE inhibition is reported as inactive: 12.9%. In the case of `Brc1ccccc1OCCCN1CCCC1`, the CPE inhibition is reported as inconclusive: 20.5%. In the case of `Cc1ccccc1CN1CCC(CNC(=O)C2CCCN(c3ncnc4c3nc3n4CCCCC3)C2)CC1` (configuration not stated), the CPE inhibition is reported as inconclusive: 30.1%. In the case of `NCCCC[C@H]1CN=C(N)N1CC1CCCCC1`, the CPE inhibition is reported as inconclusive: 29.3%. For `c1cncc(-c2ccnc3ncnn23)c1`, the CPE inhibition was inactive: 0.88%. With `Cc1c(-n2c(O)c(C3=c4ccccc4=NC3=O)sc2=O)c(=O)n(-c2ccccc2)n1C` the CPE inhibition was inconclusive: 23%. In the case of `O=C(c1cccc(Cl)c1)N1CCC2(CC1)NCCc1[nH]cnc12`, the CPE inhibition is reported as active: 27.1%. With `Cc1ccc(C2=NO[C@@](CC(=O)O)(C(=O)Nc3ccc4c(c3)OCCO4)C2)cc1` the CPE inhibition was inconclusive: 37.7%. With `C=CC(=O)N1C/C(=C/c2ccccc2)C(=O)/C(=C\c2ccccc2)C1` the CPE inhibition was inconclusive: 54.7%. In the case of `CS(=O)(=O)N1[C@@H]2c3ccc(-c4ccccc4F)c(=O)n3C[C@@H]2[C@@H](CO)[C@@H]1C(=O)NCC1CC1`, the CPE inhibition is reported as inactive: -4.23%. For `C[C@@H]1CCCCO[C@H](CN(C)S(=O)(=O)c2ccccc2)[C@@H](C)CN([C@H](C)CO)C(=O)c2cc(NC(=O)Nc3ccc4c(c3)OCO4)ccc2O1`, the CPE inhibition was active: 91.3%. With `C[C@@H]1CN([C@@H](C)CO)C(=O)CCCn2nncc2CO[C@@H]1CN(C)Cc1ccc2c(c1)OCCO2` the CPE inhibition was inactive: 2.25%. With `C[C@@H]1CCCCO[C@@H](CN(C)C(=O)Nc2ccc(C(F)(F)F)cc2)[C@@H](C)CN([C@H](C)CO)C(=O)c2cc(NS(=O)(=O)c3ccc(F)cc3)ccc2O1` the CPE inhibition was inactive: 6.69%.

Source: PubChem BioAssay AID651640 (Broad Institute, 2012)
